A short description of data set [1]: general procedure: Fmoc solid-phase peptide synthesis; Fmoc-PAL-PEG-PS resin; HATU/DIEA; DIC/HOBt; HBTU/HOBt/DIPEA.
The nature of data set [2]: peptide synthesis. The conditions noted are these: whole synthesis.
[3] abbreviates: whole synthesis, scale 130 umol.

For RWQPC*PAESWTFC*WDPGGGK(CF5)-NH2, the step yield in data set [1] (late stage modification step) came out at 60.4%.
For the substance “Ac-WQPC*PAESWTFC*WDPGGGK(JJ)-NH2 Cyclic (4→12) Peptide”, in data set [1] (setting [3]), the isolated mass turned out to be 42 mg and the isolated yield amounted to 13%.
“Aloc-RWQPC*PWESWTFC*WDPGGGK-NH2 Cyclic (5→13) Peptide” displayed an isolated yield in data set [2] of 21%.
In the case of Aloc-RWQPC*PAESWTFC*WDPGGGK(CF5)-NH2, the conjugation yield in data set [1] (conjugation step) was 62.8%.

(Values after US9333272B2 (Bracco Imaging SpA, priority 2006, dated 2016).)
